# Reference: PubChem BioAssay AID493014 (National Center for Advancing Translational Sciences (NCATS), 2011)
# The other results are listed elsewhere or left out. Shown are side measurements of this screen, not its main read-out; they come without a call. The list favours compounds with an active or inconclusive main result. Potencies come from curve fits of mixed quality, noted in brackets.
# Experiment: qHTS Assay to Find Inhibitors of Chronic Active B-Cell Receptor Signaling
# Details: ABC-DLBCL IkBa-CBG/CBR reporter, luminescence ratio (green luciferase fused to IkBa over red control in TMD8 lymphoma cells), 4 h; measured here: CBR red luminescence, cell number
# Method in brief: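 TMD8 human ABC-DLBCL cells with doxycycline-inducible IκBα–green luciferase fusion and unfused red luciferase, in 0.5% FBS medium; compounds up to 46 uM, 4 h at 37C. Green/red luminescence ratio, filter-overlap corrected, fitted to concentration-response curves.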
row,Compound,AC50
1,Cc1nc(-c2ccc3c(c2)OCCCO3)cs1,"7.08 µM [rising, full curve, poor fit]"
2,COc1cc(C(N)=O)cc(Br)c1OC,"18.4 µM [falling, partial curve, poor fit]"
3,O=C(/C=C/c1ccccc1)NC(=S)NNS(=O)(=O)c1ccccc1,"4.47 µM [rising, single point]"
4,CCN1CCCC1CNC(=O)c1ccc(Sc2ccccc2Cl)c([N+](=O)[O-])c1 (centres undefined),"11.2 µM [falling, partial curve]"
5,O=C(O)c1ccc(NC(=S)NC(NC(=O)c2ccco2)C(Cl)(Cl)Cl)cc1 (centres undefined),"16.4 µM [falling, single point]"
6,COc1ccc(C2CC2/C(C)=N/OC(=O)C2CC2)cc1 (centres undefined),"0.316 µM [rising, full curve, poor fit]"
7,Cc1ccc(C(=O)NCC(=O)Nc2ccc3c(c2)CCC3)cc1,"8.2 µM [rising, partial curve]"
8,Cc1ccc(NC(=O)C(=O)NC(C)C2COc3ccccc3O2)cc1 (centres undefined),"1.41 µM [falling, full curve]"
9,COC(=O)c1sccc1NC(=O)Cc1ccc(OC)cc1,"0.326 µM [falling, full curve]"
10,Cc1ccc(S(=O)(=O)N2CCCCC2)cc1NC(=O)CNc1ccc(C(F)(F)F)cc1,"8.2 µM [falling, partial curve]"
11,COc1cccc(-c2ncc3ccccc3c2COC(=O)c2ccc(Br)cc2)c1,"9.2 µM [falling, partial curve, poor fit]"
12,COc1ccc2nc(NC(=O)CSc3cn[nH]n3)sc2c1,"11.2 µM [falling, partial curve]"
13,CN(CCc1nc2ccc(Cl)cc2[nH]1)Cc1nc(CC2CC2)no1,"0.562 µM [rising, partial curve, poor fit]"
14,O=C1NC(=O)c2cc(NC(=O)c3cccc4ccccc34)ccc21,"0.316 µM [falling, full curve]"
15,CCc1nnc(N/N=C/c2cccs2)n1N,"29.1 µM [falling, single point]"
16,Cc1ccc(S(=O)(=O)Nc2ccccc2CNc2c(C)n(C)n(-c3ccccc3)c2=O)cc1,"20 µM [rising, partial curve, poor fit]"
17,COc1ccc(C)cc1NC(=O)c1ccc2c(c1)OCO2,"16.4 µM [rising, partial curve]"
18,c1ccc(CSCCc2ccncc2)cc1,"9.2 µM [rising, partial curve]"
19,N#Cc1cc2c(nc1SCc1ccccc1)CCCC2=O,"20.6 µM [falling, partial curve, poor fit]"

# Single values from the entries so far.
# AC50, c1ccc(CSCCc2ccncc2)cc1 reads 9.2 µM [rising, partial curve]
# AC50, Cc1nc(-c2ccc3c(c2)OCCCO3)cs1 reads 7.08 µM [rising, full curve, poor fit]
